Experimental data: article PMC12886529
These are yes or no findings as the source states them, for the method shown. Binding seen in cells or lysates may run through a third protein. Here binding means that the protein was enriched with, or labelled near, the bait; the list need not be complete. Sequences can lack the tags named with a protein.

Amino acid sequences for entries named in this document (tags omitted).
UniProt P08670: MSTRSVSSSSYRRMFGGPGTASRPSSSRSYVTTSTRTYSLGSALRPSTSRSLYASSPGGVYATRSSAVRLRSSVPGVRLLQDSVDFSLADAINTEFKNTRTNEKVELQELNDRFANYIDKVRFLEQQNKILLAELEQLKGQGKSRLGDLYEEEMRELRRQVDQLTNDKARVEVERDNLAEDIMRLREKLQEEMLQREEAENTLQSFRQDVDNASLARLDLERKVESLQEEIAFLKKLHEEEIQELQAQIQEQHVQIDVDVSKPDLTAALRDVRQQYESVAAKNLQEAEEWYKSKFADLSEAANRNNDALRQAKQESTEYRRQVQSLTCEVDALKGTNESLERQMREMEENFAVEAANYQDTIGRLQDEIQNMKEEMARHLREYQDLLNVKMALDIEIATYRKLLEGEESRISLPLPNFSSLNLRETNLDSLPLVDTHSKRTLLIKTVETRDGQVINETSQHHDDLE

Target: T1, CLCA4-Flag (chloride channel accessory 4) (UniProt Q14CN2)
T1 sequence: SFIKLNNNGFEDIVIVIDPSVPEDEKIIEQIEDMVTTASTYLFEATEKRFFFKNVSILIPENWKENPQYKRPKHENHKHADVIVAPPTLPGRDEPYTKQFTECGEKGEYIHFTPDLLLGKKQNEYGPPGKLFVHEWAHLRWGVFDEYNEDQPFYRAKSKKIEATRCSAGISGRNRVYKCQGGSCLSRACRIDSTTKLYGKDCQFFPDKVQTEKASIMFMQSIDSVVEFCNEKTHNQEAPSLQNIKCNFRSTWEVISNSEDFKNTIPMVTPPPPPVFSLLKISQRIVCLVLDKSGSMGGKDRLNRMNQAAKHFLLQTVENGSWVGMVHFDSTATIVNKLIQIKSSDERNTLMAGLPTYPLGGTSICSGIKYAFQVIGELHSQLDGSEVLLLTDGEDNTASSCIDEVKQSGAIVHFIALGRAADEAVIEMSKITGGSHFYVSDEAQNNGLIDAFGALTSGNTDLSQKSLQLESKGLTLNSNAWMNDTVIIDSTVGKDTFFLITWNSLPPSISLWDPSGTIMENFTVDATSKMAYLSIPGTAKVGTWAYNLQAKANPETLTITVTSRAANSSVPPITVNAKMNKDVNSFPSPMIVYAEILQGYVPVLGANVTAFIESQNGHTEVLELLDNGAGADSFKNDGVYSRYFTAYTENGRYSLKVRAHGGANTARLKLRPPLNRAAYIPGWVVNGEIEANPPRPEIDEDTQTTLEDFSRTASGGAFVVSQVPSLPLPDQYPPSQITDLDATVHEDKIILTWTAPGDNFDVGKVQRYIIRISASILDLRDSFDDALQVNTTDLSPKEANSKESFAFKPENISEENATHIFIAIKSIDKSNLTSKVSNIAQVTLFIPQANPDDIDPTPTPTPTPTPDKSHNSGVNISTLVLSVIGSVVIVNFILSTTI
Assay: affinity purification with mass spectrometry; immunoprecipitation sample against IgG control sample; tryptic peptides on a nanoUPLC-ESI-LTQ Orbitrap; proteins with at least two unique peptides

Substance: vimentin (found in the immunoprecipitate of CLCA4) (from UniProt P08670 1-466)
- binding: binds
